Reference: paper doi:10.1101/2025.02.21.639444
No constants are given. Whether binding was seen depends on the method and setting. In cells and extracts the contact can be indirect. Sequences can lack the tags named with a protein.

Biological target: T1, GFP-ATG8a (UniProt Q8LEM4)
T1 sequence: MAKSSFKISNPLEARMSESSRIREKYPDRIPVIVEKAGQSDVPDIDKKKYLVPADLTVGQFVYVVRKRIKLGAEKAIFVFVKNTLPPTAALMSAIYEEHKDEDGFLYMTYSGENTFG
Assay: co-IP

binding: no binding
Binder: MELFALLIKVAGLLATVTVGANVVSYSRFRR (domain or fragment, UniProt Q93Y07 1-31) [SNT-BFP]
